Our source for the log2 fold change values is the supplement of paper PMC10849652.

Sequences of proteins named here, by UniProt entry; tags and fusion partners are left off. A change or cut given only in a name is not applied to a line headed by its entry.
UniProt Q8NE18: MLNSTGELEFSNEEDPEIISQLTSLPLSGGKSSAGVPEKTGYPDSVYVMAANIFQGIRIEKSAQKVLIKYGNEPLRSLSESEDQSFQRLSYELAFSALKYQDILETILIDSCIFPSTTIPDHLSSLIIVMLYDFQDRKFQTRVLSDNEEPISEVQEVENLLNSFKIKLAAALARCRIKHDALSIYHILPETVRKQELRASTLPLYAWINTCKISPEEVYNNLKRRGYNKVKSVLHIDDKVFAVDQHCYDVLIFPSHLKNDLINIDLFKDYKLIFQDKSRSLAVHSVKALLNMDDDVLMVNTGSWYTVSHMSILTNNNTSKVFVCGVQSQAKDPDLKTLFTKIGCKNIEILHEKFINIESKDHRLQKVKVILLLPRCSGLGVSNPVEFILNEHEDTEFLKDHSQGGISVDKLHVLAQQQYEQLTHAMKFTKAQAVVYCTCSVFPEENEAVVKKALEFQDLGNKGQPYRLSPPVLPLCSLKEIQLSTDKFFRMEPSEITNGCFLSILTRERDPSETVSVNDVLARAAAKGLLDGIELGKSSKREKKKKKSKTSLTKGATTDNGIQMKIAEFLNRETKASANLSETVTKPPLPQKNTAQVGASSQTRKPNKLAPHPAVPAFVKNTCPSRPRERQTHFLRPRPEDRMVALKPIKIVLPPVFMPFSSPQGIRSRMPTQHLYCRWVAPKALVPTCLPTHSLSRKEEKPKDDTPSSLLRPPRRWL
UniProt P13056: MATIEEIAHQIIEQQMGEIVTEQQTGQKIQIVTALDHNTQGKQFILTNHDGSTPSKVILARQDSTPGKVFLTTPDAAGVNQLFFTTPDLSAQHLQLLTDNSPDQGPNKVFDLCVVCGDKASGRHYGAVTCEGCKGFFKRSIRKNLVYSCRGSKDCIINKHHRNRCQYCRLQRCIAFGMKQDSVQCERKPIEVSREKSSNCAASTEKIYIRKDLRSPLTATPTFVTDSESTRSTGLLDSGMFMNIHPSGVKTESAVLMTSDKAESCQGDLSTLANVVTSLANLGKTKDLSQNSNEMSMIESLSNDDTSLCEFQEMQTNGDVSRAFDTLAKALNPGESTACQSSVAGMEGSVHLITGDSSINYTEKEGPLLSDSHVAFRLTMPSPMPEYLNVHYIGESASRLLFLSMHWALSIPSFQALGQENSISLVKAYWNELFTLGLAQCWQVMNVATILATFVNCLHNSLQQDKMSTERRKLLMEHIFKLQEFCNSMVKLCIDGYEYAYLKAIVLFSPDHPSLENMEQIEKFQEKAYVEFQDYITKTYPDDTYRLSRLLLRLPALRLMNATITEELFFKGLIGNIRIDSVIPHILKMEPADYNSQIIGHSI
UniProt O95848: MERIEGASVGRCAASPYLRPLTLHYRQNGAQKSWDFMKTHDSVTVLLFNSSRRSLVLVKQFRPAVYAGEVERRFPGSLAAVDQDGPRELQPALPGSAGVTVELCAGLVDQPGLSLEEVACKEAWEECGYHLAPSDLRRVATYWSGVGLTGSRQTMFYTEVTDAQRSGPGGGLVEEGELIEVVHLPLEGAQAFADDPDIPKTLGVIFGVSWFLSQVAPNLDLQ
UniProt Q96MY1: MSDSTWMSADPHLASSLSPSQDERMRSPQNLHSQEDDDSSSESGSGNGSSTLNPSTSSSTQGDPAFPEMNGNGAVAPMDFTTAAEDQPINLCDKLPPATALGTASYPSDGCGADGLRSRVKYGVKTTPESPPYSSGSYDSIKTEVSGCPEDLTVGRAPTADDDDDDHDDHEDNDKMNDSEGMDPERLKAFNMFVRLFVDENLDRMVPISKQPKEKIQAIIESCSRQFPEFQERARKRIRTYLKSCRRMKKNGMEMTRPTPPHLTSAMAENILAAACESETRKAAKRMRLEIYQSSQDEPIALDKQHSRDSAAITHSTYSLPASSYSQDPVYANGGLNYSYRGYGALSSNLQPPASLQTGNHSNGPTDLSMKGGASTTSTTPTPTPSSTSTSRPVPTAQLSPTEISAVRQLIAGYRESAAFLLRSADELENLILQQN
UniProt Q8WV74: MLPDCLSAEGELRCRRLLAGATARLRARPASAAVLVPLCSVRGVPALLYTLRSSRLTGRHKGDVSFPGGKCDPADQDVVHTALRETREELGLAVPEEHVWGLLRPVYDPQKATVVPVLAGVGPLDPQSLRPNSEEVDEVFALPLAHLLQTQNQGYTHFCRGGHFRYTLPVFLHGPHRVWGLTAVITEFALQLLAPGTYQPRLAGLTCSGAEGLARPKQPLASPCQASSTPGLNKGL
UniProt P46531, whole entry, looked up: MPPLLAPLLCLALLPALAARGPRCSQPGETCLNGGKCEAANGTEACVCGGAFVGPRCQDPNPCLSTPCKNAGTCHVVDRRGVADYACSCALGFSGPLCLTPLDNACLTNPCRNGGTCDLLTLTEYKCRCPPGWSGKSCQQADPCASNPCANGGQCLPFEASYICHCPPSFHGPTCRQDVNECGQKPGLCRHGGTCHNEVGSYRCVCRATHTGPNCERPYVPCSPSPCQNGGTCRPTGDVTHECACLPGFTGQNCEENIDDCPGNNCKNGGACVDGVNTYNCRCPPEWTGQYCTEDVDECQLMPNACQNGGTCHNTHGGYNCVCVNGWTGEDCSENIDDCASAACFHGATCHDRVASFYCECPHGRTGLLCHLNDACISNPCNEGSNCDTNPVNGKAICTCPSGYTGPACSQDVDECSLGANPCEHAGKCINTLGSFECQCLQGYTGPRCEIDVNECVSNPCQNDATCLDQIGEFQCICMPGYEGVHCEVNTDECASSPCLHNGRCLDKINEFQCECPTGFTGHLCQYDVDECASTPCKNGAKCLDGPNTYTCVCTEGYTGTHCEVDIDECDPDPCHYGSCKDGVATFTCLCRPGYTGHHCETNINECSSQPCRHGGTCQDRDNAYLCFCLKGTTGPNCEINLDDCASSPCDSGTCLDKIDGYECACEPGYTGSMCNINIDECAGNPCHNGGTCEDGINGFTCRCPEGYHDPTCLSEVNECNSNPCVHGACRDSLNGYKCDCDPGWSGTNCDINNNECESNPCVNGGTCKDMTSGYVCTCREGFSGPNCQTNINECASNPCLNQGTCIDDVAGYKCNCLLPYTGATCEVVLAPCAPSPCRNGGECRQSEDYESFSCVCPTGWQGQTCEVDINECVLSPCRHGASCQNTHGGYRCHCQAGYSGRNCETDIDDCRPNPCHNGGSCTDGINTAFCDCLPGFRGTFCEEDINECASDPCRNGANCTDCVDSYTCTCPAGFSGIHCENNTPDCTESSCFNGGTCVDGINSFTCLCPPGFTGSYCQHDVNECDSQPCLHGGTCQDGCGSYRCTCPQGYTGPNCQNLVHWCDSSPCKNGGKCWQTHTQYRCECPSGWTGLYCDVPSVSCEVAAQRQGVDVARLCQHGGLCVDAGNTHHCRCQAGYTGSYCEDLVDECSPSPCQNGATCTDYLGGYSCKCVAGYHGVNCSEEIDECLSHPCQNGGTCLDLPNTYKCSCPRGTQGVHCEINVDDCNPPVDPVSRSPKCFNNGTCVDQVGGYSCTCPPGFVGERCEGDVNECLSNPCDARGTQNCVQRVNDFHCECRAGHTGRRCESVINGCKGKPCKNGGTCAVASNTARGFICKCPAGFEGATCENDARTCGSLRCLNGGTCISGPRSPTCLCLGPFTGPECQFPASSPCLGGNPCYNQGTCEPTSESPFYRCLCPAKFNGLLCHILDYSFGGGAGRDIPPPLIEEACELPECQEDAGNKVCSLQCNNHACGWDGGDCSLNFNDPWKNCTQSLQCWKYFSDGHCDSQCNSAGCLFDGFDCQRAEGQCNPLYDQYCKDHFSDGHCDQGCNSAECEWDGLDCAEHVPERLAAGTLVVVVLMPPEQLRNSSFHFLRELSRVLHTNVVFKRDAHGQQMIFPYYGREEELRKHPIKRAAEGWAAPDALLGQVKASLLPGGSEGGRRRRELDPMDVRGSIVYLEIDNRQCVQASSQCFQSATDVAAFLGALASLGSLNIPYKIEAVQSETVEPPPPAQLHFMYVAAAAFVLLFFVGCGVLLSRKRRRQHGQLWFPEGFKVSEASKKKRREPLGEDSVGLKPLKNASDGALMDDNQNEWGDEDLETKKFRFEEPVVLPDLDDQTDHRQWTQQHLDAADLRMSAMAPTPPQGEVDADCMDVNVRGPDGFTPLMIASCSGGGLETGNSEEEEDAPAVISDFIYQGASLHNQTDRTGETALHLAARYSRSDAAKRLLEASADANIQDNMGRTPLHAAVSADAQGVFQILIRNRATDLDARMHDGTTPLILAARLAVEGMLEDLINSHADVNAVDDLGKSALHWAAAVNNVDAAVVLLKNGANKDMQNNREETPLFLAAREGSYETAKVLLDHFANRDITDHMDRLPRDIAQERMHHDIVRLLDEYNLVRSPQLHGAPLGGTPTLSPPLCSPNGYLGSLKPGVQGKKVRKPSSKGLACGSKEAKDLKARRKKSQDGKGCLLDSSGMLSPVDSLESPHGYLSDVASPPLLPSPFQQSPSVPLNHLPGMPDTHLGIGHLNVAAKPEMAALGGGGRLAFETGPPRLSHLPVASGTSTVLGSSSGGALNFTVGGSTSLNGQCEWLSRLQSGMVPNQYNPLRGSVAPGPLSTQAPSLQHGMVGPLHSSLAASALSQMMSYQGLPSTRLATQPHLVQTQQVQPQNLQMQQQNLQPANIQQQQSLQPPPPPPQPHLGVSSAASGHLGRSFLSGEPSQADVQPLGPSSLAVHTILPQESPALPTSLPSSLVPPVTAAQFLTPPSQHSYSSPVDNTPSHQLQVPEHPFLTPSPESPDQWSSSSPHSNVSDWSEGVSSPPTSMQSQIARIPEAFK
UniProt Q12980: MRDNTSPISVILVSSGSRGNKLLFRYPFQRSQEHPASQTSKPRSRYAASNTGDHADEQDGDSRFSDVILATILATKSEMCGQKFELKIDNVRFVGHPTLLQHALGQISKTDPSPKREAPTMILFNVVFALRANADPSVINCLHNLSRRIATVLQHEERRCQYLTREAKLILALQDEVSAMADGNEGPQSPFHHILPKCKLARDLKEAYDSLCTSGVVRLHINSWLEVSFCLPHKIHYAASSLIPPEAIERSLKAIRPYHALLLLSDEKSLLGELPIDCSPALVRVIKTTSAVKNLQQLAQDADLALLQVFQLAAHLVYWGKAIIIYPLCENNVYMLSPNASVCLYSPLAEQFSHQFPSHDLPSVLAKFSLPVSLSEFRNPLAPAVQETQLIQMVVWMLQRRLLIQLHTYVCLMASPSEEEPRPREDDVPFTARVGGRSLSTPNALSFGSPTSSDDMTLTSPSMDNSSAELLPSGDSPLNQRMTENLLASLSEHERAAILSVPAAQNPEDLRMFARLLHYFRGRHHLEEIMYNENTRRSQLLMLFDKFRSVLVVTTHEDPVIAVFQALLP
UniProt Q76FK4: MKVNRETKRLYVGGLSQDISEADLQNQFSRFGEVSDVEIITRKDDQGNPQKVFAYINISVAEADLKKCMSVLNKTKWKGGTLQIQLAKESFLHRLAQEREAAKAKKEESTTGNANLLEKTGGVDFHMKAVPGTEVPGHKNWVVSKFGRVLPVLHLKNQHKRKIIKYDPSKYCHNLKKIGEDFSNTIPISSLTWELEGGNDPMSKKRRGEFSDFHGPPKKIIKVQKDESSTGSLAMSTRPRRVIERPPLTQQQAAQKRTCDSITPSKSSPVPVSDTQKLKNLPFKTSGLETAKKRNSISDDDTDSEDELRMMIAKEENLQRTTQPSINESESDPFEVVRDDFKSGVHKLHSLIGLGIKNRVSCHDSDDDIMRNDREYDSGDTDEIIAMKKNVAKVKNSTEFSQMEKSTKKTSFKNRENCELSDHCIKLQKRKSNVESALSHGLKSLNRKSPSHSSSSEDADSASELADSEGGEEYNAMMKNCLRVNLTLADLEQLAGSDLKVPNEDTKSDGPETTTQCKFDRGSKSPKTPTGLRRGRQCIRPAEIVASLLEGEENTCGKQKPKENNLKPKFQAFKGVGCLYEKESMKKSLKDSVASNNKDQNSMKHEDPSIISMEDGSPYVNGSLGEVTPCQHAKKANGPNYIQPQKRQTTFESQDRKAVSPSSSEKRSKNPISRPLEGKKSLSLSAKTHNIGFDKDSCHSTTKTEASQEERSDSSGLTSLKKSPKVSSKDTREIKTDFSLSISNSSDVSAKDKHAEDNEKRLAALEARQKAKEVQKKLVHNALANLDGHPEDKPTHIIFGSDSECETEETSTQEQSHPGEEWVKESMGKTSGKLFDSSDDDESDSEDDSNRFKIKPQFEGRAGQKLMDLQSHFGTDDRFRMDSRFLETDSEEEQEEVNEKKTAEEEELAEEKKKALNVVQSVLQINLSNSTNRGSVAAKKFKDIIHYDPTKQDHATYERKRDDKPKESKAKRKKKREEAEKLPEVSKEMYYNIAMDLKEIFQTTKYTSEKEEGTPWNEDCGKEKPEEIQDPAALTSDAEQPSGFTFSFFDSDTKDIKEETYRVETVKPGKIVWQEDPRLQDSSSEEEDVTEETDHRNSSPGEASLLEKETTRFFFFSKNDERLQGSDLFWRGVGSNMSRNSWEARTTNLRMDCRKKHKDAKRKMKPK

This is one part of the list.

Compound in this assay: c1ccc([C@@H]2C[C@H]2NC2CCNCC2)cc1
Description: log2 fold change, soluble protein after heating vs DMSO (PISA); higher = thermal stabilisation; K562 lysate, 10 uM; active = over 0.2 and 3.5 SD of the protein, either way, in both replicates (recomputed). The method in brief: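 Following dounce homogenisation of K562 pellets in PBS pH 7.4 with 1 mM MgCl2, crude extract at 1 mg/mL protein was incubated for 30 min with 10 μM compound. Aliquots were then heated for 3 min over 48°C-58°C and pooled, NP-40 was added to 0.5% at 4°C, and soluble protein was recovered as the supernatant at 21,000xg for 90 min. Channel-sum-equalised TMTpro 16plex LC-MS/MS quantified this protein. Each value, from duplicates, is a log-two fold change in thermal stability relative to solvent controls.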
With NUFIP1 (UniProt Q9UHK0), the log2 fold change is inactive: -0.026.

Regarding NOLC1 isoform 3 (UniProt Q14978), the log2 fold change is inactive: -0.157.

Turning to NTRK1 (UniProt P04629), the log2 fold change was inactive: -0.329.

For the target NSUN7 (UniProt Q8NE18), the log2 fold change was inactive: -0.081.

On to NR2C1 (UniProt P13056), for which the log2 fold change was inactive: 0.205.

With NSD2 (UniProt O96028), the log2 fold change was inactive: 0.107.

Consider NSD1 (UniProt Q96L73), for which the log2 fold change was inactive: -0.005.

With NOM1 (UniProt Q5C9Z4), the log2 fold change is inactive: -0.003.

Turning to NUDT14 (UniProt O95848), the log2 fold change is inactive: -0.079.

For the target NUDT21 (UniProt O43809), the log2 fold change was inactive: 0.058.

For the target NOL4L (UniProt Q96MY1), the log2 fold change was inactive: 0.034.

On to NR2F2 (UniProt P24468), for which the log2 fold change was inactive: 0.082.

As for NRIP3 (UniProt Q9NQ35), the log2 fold change is inactive: 0.054.

As to NUDT8 (UniProt Q8WV74), the log2 fold change was inactive: -0.089.

For NOTCH1 (UniProt P46531), the log2 fold change is inactive: -0.139.

As for NUDT18 (UniProt Q6ZVK8), the log2 fold change was inactive: -0.075.

As for NOMO1 (UniProt Q15155), the log2 fold change is inactive: 0.176.

On to NSD3 (UniProt Q9BZ95), for which the log2 fold change is inactive: 0.028.

Turning to NPRL3 (UniProt Q12980), the log2 fold change is inactive: -0.064.

As to NMU (UniProt P48645), the log2 fold change is inactive: 0.06.

With NOS1AP (UniProt O75052), the log2 fold change was inactive: -0.075.

Turning to NPL (UniProt Q9BXD5), the log2 fold change is inactive: -0.242.

For the target NRIP1 (UniProt P48552), the log2 fold change was inactive: -0.069.

As for NPEPPS (UniProt P55786), the log2 fold change was inactive: 0.01.

Take NOL8 (UniProt Q76FK4): the log2 fold change is inactive: -0.025.
